Results are given in words; binding and its absence hold for the method and conditions named. Binding seen in cells or lysates may run through a third protein. These calls come from enrichment with a bait or labelling near it, and not all partners need be listed.
Biological target: MERS-CoV non-structural protein 1 (nsp1) (MERS-CoV) (UniProt K9N7C7)
Experiment: affinity purification with mass spectrometry

Amino acid sequences for entries named in this document (tags omitted). Residues count along the entry.
UniProt K9N7C7, residues 1-193: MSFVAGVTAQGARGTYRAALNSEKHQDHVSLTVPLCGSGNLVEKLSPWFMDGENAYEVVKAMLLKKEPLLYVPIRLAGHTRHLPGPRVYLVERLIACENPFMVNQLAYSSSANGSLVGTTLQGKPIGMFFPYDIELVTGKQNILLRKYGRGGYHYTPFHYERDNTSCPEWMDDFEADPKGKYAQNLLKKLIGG
UniProt Q9UM54: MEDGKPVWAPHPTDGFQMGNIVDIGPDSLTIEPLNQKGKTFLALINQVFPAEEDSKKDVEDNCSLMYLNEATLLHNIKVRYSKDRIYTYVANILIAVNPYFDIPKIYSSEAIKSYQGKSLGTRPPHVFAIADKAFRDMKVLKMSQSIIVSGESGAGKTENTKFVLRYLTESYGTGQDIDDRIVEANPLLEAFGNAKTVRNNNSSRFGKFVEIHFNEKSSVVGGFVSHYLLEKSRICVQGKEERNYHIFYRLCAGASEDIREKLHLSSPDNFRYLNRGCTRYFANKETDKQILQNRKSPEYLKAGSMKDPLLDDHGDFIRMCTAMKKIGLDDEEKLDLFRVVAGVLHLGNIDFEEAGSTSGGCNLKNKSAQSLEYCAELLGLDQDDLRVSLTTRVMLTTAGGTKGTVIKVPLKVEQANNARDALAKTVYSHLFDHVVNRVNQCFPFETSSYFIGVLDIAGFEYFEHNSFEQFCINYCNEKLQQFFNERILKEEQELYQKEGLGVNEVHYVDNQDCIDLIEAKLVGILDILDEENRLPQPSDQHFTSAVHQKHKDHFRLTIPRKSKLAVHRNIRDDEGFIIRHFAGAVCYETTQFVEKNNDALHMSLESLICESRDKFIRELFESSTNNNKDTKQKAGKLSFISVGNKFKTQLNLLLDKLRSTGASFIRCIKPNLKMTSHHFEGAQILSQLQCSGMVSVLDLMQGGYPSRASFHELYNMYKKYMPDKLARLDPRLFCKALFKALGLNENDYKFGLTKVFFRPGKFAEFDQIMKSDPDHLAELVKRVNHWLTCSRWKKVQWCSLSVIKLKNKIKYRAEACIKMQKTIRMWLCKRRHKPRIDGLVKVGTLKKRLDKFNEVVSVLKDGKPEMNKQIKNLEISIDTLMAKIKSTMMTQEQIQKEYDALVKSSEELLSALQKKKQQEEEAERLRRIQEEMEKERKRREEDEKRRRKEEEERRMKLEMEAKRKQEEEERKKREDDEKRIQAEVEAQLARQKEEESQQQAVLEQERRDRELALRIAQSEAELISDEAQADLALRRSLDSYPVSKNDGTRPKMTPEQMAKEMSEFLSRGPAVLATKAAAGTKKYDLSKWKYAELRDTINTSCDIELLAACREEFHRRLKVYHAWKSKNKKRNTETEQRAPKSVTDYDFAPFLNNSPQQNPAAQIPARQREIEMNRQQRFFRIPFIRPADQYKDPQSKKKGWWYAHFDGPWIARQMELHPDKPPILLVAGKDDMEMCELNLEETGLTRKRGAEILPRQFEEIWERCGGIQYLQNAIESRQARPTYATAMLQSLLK

In the case of Myosin VI (from UniProt Q9UM54 1-1294), the binding is reported as “binds”.
